Measured values from patent US20130157261A1, “Compositions and Methods for Quantitative Histology, Calibration of Images in Fluorescence Microscopy, and ddTUNEL Analyses” (The Methodist Hospital Research Institute, priority 2011, published 2013).
For at least one compound, name, drawing or mass did not settle the structure.

Legend:
U87 cells [1] = experiment: γ-H2A.X histone labelling with FITC-labeled antibody; type: cell-based, human; conditions: 24 hrs
Description: FITC-labeled Anti-H2A.X histone monoclonal antibody (BioLegend, San Diego, Calif.) was used as an internal control for DNA breaks, at a 1/50 dilution after the samples were blocked with 10% horse serum.
Human glioblastoma cells (U87) (American Type Culture Collection, Manassas, Va., USA), and grown as recommended in DMEM with penicillin/streptomycin and 10% FBS. Following 3-weeks' growth and splitting, 5 mL of cells were plated into microscope slide chambers (Lab-Tek) at […], and were allowed to grow in the slide chambers for 24 hrs, until they became confluent. […] 24 hrs after treatment, all cells were fixed with 2% PFA for 1 hr, washed 3× in 0.1 M PBS, then incubated in 0.1% Triton X-100® for 6 min and finally washed in 0.1 M PBS buffer. Each slide was assayed for double-strand blunt (red) and overhanging (blue) DNA damage, and counterstained for DNA with YO-PRO-1® (green) or for γH2A.X with an FITC-labeled IgG antibody (green).
After incubation with 10% horse sera and washing, Ser139-phosphorylated H2A.X histone was imaged using an FITC-labeled monoclonal antibody (Biolegend, San Diego, Calif., USA) (1:500) following the methods of the manufacturer. Immune cell marker CD3ε was imaged using an FITC-labeled monoclonal antibody (Santa Cruz Biotechnologies, Santa Cruz, Calif.) (also at 1:500) as recommended by the manufacturer.

U87 cells [2] = experiment: in situ ligation of blunt-ended and 3′-T-OH overhanging oligonucleotide probes (DNA breaks); type: cell-based, human; conditions: 24 hrs
Description: U87, human glioblastoma, cells were obtained from the American TypeCulture Collection (ATCC) Manassas, Va. and grown as recommended in DMEM with penicillin/streptomycin and 10% FBS. Following 3 weeks of growth and splitting cells were plated into slide chambers (Lab-Tek Nalge Nunc International, Rochester, N.Y., USA) at 2×10^5 cells per mL, and were allowed to grow thereon for 24 hrs until confluence was reached.
Twenty-four hrs after treatment, all cells were fixed with 4% PFA for one hr and washed 3× in 0.1 M PBS, incubated in 0.1% Triton-X100® for 6 min and then washed in 0.1 M PBS buffer. Each slide was assayed for double-strand DNA blunt-ended and overhanging 3′-OH ends, and counterstained for DNA with YO-PRO-1®.
The 3′-OH T specific overhang and blunt-ended DNA probes, shown in FIG. 2A and FIG. 2B, were ligated to the known oligonucleotide standard phantoms the amine apex oligoneuleotides, or alternatively, to fixed permeabilized U87 cells. The sections were pre-incubated in the ligation buffer without the probe (66 mM Tris-HCl, pH 7.5, 5 mM MgCl2, 0.1 mM dithioerythritol, 1 mM ATP, and 15% polyethylene glycol-8000) to ensure even saturation. The buffer was aspirated, and the full ligation mix containing the ligation buffer with probe, 35 μg/μL, and 0.5 U/μL T4 DNA ligase (New England BioLabs; Ipswich, Mass., USA) was applied to the sections, which were then incubated in a humidified box overnight.
The 3′-OH T-specific overhanging- and blunt-ended DNA probes shown in FIG. 11B were ligated to oligonucleotide standard phantoms, mammary gland or to fixed, permeabilized U87 cells. The sections were pre-incubated with ligation buffer in the absence of the probe (66 mM-Tris HCl, pH 7.5, 5 mM MgCl2, 0.1 mM dithioerythritol, 1 mM ATP, and 15% polyethylene glycol-8000) to ensure even saturation. The buffer was aspirated and the full ligation mix [ligation buffer+probe (35 μg/μL) and T4 DNA ligase (0.5 U/μL)] was applied to the sections, which were then incubated in a humidified box overnight. […]

## Cn1nnc2c(C(N)=O)ncn2c1=O [Temozolomide]
U87 cells [1]
  transfer of γ-H2A.X into the cytosol: little or no transfer
U87 cells [2]; Example 2
  change in blunt-ended breaks: massive increases
  increase in levels of overhangs: more than an order of magnitude
U87 cells [2]; microscopy
  blebbing of treated cells: little evidence of blebbing
